Laboratory results: paper PMC6280245
Results are given in words; binding and its absence hold for the method and conditions named. In cells and extracts the contact can be indirect. Here binding means that the protein was enriched with, or labelled near, the bait; the list need not be complete.

By UniProt entry, the sequences of proteins in these tests, tags left out.
UniProt P56399: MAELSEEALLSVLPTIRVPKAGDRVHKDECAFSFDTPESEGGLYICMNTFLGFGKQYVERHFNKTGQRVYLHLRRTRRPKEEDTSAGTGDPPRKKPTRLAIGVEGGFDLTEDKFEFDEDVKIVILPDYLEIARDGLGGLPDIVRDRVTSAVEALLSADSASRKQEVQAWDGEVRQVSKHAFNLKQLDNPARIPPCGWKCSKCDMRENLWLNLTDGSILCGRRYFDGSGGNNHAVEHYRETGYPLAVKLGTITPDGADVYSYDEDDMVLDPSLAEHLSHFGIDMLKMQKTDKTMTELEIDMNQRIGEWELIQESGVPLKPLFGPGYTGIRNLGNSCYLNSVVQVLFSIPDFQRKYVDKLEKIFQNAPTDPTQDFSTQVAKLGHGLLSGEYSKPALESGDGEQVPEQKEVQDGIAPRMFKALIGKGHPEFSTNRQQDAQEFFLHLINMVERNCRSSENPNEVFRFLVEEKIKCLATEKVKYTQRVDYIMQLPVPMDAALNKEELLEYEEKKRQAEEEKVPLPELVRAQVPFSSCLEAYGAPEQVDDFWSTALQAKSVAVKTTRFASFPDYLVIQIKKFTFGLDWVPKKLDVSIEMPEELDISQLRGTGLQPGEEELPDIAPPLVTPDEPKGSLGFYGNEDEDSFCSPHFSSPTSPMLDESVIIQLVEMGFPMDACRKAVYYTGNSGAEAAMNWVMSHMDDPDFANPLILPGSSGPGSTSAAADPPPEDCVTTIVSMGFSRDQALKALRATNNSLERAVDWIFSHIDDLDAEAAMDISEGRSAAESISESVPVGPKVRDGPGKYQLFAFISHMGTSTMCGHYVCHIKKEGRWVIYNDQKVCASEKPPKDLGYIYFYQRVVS

T1: mouse Nucleoredoxin Cys208Ser (mouse) (UniProt P97346)
T1 sequence: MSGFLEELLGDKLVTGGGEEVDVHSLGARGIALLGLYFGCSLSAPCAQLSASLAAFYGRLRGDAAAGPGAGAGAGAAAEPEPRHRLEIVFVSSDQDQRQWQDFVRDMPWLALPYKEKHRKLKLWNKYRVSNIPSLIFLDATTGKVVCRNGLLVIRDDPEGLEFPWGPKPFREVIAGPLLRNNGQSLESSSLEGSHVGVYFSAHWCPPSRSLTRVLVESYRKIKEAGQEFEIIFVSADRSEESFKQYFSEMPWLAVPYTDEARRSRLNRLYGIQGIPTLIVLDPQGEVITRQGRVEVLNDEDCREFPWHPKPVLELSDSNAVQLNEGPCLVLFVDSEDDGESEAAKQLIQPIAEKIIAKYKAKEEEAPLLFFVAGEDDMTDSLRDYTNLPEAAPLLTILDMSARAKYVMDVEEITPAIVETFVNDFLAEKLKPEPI

B1: Tyrosine-tRNA ligase, cytoplasmic (mouse) (protein, UniProt Q91WQ3 1-528)
chain: MGDAPSPEEKLHLITRNLQEVLGEEKLKEILKERELKVYWGTATTGKPHVAYFVPMSKIADFLKAGCEVTILFADLHAYLDNMKAPWELLELRTSYYENVIKAMLESIGVPLEKLKFIKGTDYQLSKEYTLDVYRLSSVVTQHDAKKAGAEVVKQVEHPLLSGLLYPGLQALDEEYLKVDAQFGGVDQRKIFTFAEKYLPALGYSKRVHLMNPMVPGLTGSKMSSSEEESKIDLLDRKEDVKKKLKKAFCEPGNVENNGVLSFIKHVLFPLKSEFVILRDEKWGGNKTYTVYLELEKDFAAEVVHPGDLKNSVEVALNKLLDPIREKFNTPALKKLASAAYPDPSKQKPPAKGPAKNSEPEEVIPSRLDIRVGKILSVEKHPDADSLYVEKIDVGEAEPRTVVSGLVQFVPKEELQDRLVVVLCNLKPQKMRGVDSQGMLLCASVEGVSRQVEPLDPPAGSAPGERVFVQGYEKGQPDEELKPKKKVFEKLQADFKISEECIAQWKQTNFMTKLGFVSCKSLKGGNIS
B2: Alpha-aminoadipic semialdehyde dehydrogenase (mouse) (protein, UniProt Q9DBF1 27-539)
chain: AHMSTLLIHHPQYAWLQDLGLREDNEGVYNGSWGGRGEVITTYCPANNEPIARVRQASLKDYEETIGKAKKAWNIWADIPAPKRGEIVRKIGDAFREKIQLLGRLVSLEMGKILVEGIGEVQEYVDVCDYAAGLSRMIGGPTLPSERPGHALIEMWNPLGLVGIITAFNFPVAVFGWNNAIALITGNVCLWKGAPTTSLVSVAVTKIIAQVLEDNLLPGAICSLVCGGADIGTTMARDERVNLLSFTGSTQVGKEVALMVQERFGKSLLELGGNNAIIAFEDADLSLVVPSVLFAAVGTAGQRCTTVRRLFLHESIHNEVVDRLRSAYSQIRVGNPWDPNILYGPLHTKQAVSMFVRAVEEAKKQGGTVVYGGKVMDHPGNYVEPTIVTGLAHDAPIVHQETFAPILYVFKFQDEEEVFEWNNEVKQGLSSSIFTKDLGRIFRWLGPKGSDCGIVNVNIPTSGAEIGGAFGGEKHTGGGRESGSDAWKQYMRRSTCTINYSTSLPLAQGIKFQ
B3: Branched-chain amino acid aminotransferase, cytosolic (mouse) (protein, UniProt P24288 1-386)
chain: MKDCSNGCSAPFAGERGSEEVAETFRAKDLIITPATVLKEKPDPDSLVFGATFTDHMLTVEWSSASGWEKPHIKPFGNLPIHPAASVLHYAVELFEGLKAFRGVDNKIRLFRPDLNMDRMCRSAVRTTLPMFDKEELLKCILQLLQIDQEWVPYSTSASLYIRPTFIGTEPSLGVKKPSKALLFVILSPVGPYFSSGSFTPVSLWANPKYIRAWKGGTGDCKMGGNYGASLLAQCEAVENGCQQVLWLYGKDNQITEVGTMNLFLYWINEDGEEELATPPLDGIILPGVTRQSILELAQQWGEFKVCERHLTMDDLATALEGNRVKEMFGSGTACVVCPVSDILYKGQMLHIPTMENGPKLASRILGKLTDIQYGRVESDWTIELP
B4: T-Complex protein 1 subunit beta (mouse) (protein, UniProt P80314 1-535)
chain: MASLSLAPVNIFKAGADEERAETARLSSFIGAIAIGDLVKSTLGPKGMDKILLSSGRDAALMVTNDGATILKNIGVDNPAAKVLVDMSRVQDDEVGDGTTSVTVLAAELLREAESLIAKKIHPQTIISGWREATKAAREALLSSAVDHGSDEARFWQDLMNIAGTTLSSKLLTHHKDHFTKLAVEAVLRLKGSGNLEAIHVIKKLGGSLADSYLDEGFLLDKKIGVNQPKRIENAKILIANTGMDTDKIKIFGSRVRVDSTAKVAEIEHAEKEKMKEKVERILKHGINCFINRQLIYNYPEQLFGAAGVMAIEHADFAGVERLALVTGGEIASTFDHPELVKLGSCKLIEEVMIGEDKLIHFSGVALGEACTIVLRGATQQILDEAERSLHDALCVLAQTVKDPRTVYGGGCSEMLMAHAVTQLANRTPGKEAVAMESFAKALRMLPTIIADNAGYDSADLVAQLRAAHSEGHITAGLDMKEGTIGDMAVLGITESFQVKRQVLLSAAEAAEVILRVDNIIKAAPRKRVPDHHPC
B5: T-Complex protein 1 subunit theta (mouse) (protein, UniProt P42932 1-548)
chain: MALHVPKAPGFAQMLKDGAKHFSGLEEAVYRNIQACKELAQTTRTAYGPNGMNKMVINRLEKLFVTNDAATILRELEVQHPAAKMIVMASHMQEQEVGDGTNFVLVFAGALLELAEELLRIGLSVSEVISGYEIACKKAHEILPELVCCSAKNLRDVDEVSSLLRTSIMSKQYGSETFLAKLIAQACVSIFPDSGNFNVDNIRVCKILGSGIYSSSVLHGMVFKKETEGDVTSVKDAKIAVYSCPFDGMITETKGTVLIKTAEELMNFSKGEENLMDAQVKAIAGTGANVIVTGGKVADIALHYANKYNIMLVRLNSKWDLRRLCKTVGATALPKLTPPVQEEMGHCDSVYLSEVGDTQVVVFKHEKEDGAISTIVLRGSTDNLMDDIERAVDDGVNTFKVLTRDKRLVPGGGATEIELAKQITSYGETCPGLEQYAIKKFAEAFEAIPRALAENSGVKANEVISKLYSVHQEGNKNVGLDIEAEVPAVKDMLEASILDTYLGKYWAIKLATNAAVTVLRVDQIIMAKPAGGPKPPSGKKDWDDDQND
B6: Aspartate aminotransferase, mitochondrial (mouse) (protein, UniProt P05202 30-430)
chain: SSWWTHVEMGPPDPILGVTEAFKRDTNSKKMNLGVGAYRDDNGKPYVLPSVRKAEAQIAAKNLDKEYLPIGGLAEFCKASAELALGENNEVLKSGRFVTVQTISGTGALRVGASFLQRFFKFSRDVFLPKPSWGNHTPIFRDAGMQLQGYRYYDPKTCGFDFSGALEDISKIPEQSVLLLHACAHNPTGVDPRPEQWKEIASVVKKKNLFAFFDMAYQGFASGDGDKDAWAVRHFIEQGINVCLCQSYAKNMGLYGERVGAFTVVCKDAEEAKRVESQLKILIRPLYSNPPLNGARIAATILTSPDLRKQWLQEVKGMADRIISMRTQLVSNLKKEGSSHNWQHITDQIGMFCFTGLKPEQVERLTKEFSVYMTKDGRISVAGVTSGNVGYLAHAIHQVTK
B7: 3-Hydroxyacyl-CoA dehydrogenase type-2 (mouse) (protein, UniProt O08756 1-261)
chain: MAAAVRSVKGLVAVVTGGASGPWLATAKRLVGQGATAVLLDVPDSEGESQAKKLGESCIFAPANVTSEKEIQAALTLAKEKFGRIDVAVNCAGIAVAIKTYHQKKNKIHTLEDFQRVINVNLIGTFNVIRLVAGEMGQNEPDQGGQRGVIINTASVAAFEGQVGQAAYSASKGGIDGMTLPIARDLAPTGIRVVTIAPGLFATPLLTTLPEKVRNFLASQVPFPSRLGDPAEYAHLVQTIIENPFLNGEVIRLDGAIRMQP
B8: Isoleucine-tRNA ligase, mitochondrial (mouse) (protein, UniProt Q8BIJ6 49-1012)
chain: DSPQSSSKGGRYRDTVLLPQTSFPMKLLGRQQSDMELEIQQKCGFSELYSWQRERKVKTEFCLHDGPPYANGDPHVGHALNKILKDIANRFHMMRGSKVHFVPGWDCHGLPIETKVLSELGVDAQSLSAMEIREKARSFAQAAIEKQKSAFVRWGVMADWNNCYYTFDPKYEAKQLRVFYQMYEKGLVYRSYKPVYWSPSSRTALAEAELEYNPEHVSRSIYVRFPLLRPPPKLESLTDASSPVSVLVWTTQPWTIPANQAICYMPEAKYAVVKCSASGHLYILAEDKIAPVASALETTFDVVAAFSGVDLEGGTCSHPLTPDKVSPLLPATHVTMAKGTGLVHTAPAHGMEDYSVASQHSLPMDCLVDEGGMFTDAAGPELQNKAVLKEGTDVVIKMLQATKNVLKEENIVHSYPCDWRTKTPVLIRASKQWFVNITDIKAAAKESLKTVKFIPGAALNSMTDMLDRRPYWCISRQRVWGVPIPVFHHKTKDEYLINSQTTEHIIKLVEQHGSDVWWTLPAEQLLPAEVLAQAGGPGALEYAPGQDILDIWFDSGTSWSCVLQDTQQRADLYLEGKDQLGGWFQSSLLTSVATRSKAPFRTVMVHGFTLGEKGEKMSKSLGNVINPDTIISGGKDHSKEPPYGADILRWWIAESNVFTEVTIGPSVLSAARDDISKLRNTLRFLLGNLTGFNPETDSVPVKNMYVIDQYMLHLIQDFATKITDSYKQYDFGKVVRLLKAFYTRELSSFYFSIVKDRLYCENEKDPKRRSCQTALAEILDVLVRAFAPILPHLAEEVFQHIPYVTEPKSVFRTGWINTSSIWKKPGLEEAVESACAMRDSFLGSIPGKNAAEYEVIIVIEPGLLFEIMEMLQAEETSSTSQLNELMMASQTTLLAQEPRERTAGDIELTGTFVINLEGGDIREESSYKVIVVPTAREKCPRCWKHTSETADALCPRCAEVIGAK

Each molecule was assayed against T1, mouse Nucleoredoxin Cys208Ser (mouse) (assay: affinity purification with mass spectrometry; intermediate trapping: mNrx Cys208Ser coupled to CNBr-activated sepharose and reduced with 10 mM DTT; mouse brain extract (Black 6 C57J mice, NP40 lysis buffer) 2 h at 4°C; washed with 100 mM Tris, 300 mM NaCl, pH 8 and TE buffer; trapped proteins (mixed disulfide) eluted with 10 mM DTT and 10 mM TCEP; only the target purified).

binding, binds:
Ubiquitin carboxyl-terminal hydrolase 5 (mouse) (from UniProt P56399 1-858)
B1
B2
B3
B4
B5
B6
B7
B8
